The record followed here is PubChem BioAssay AID493014 (National Center for Advancing Translational Sciences (NCATS), 2011).

One may read the AC50 as the concentration giving half of the maximal activity seen.

This experiment is described as follows: qHTS Assay to Find Inhibitors of Chronic Active B-Cell Receptor Signaling. To be noted: ABC-DLBCL IkBa-CBG/CBR reporter, luminescence ratio (green luciferase fused to IkBa over red control in TMD8 lymphoma cells), 4 h. The method in brief: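 Cell line TMD8 (human ABC DLBCL), stably expressing tet-inducible CBG68-IkBa fusion and CBR; IMDM/0.5% FBS; cpd up to 46 uM; dox induction, 4 h, 37C/5% CO2; dual luminescence; green/red ratio; MG132 control.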
On the technique in general: qHTS replaces the single test concentration by a dilution series.

[1] abbreviates: measured here: CBR red luminescence, cell number.
Setting [2] is: measured here: IkBa-CBG green luminescence.

The list shows a part of the results. Shown are side measurements of this screen, not its main read-out; they come without a call. Compounds called inactive in the main read-out are mostly missing here. Words in brackets tell the shape of the fitted curve; partial curves, single points and poor fits give uncertain potencies.

On to `CCC1CCCCN1C(=S)NC1CCCCC1` (stereo unspecified), for which, under setting [1], the concentration at half-maximal activity (AC50) is 29.1 µM [rising, single point].

Turning to `CCOC(=O)c1cnn2c(C(F)F)cc(C3CC3)nc12`, the AC50 under setting [1] was 4.11 µM [rising, full curve, poor fit].

As to `O=S(=O)(Nc1ccc(-c2ccc3nncn3n2)cc1)c1cc(F)ccc1F`, under setting [1], the AC50 is 20.6 µM [rising, partial curve].

For `CCOC(=O)N1CCC(NC(=O)c2ccc3c(Cl)c4c(nc3c2)CCCC4)CC1`, under setting [1], the AC50 is 29.1 µM [falling, single point].

For `O=C(O)Cc1coc(-c2ccc(F)cc2)n1`, the half-maximal activity concentration (AC50) under setting [1] was 25.9 µM [rising, partial curve, poor fit].

For `CCCc1cc(-c2[nH]ncc2-c2ccc3c(c2)OCCCO3)c(O)cc1OC`, the AC50 under setting [1] was 32.6 µM [falling, single point].

`CCc1ccccc1OCC(=O)OCC(=O)c1c(N)n(C)c(=O)n(C)c1=O`: under setting [1], the half-maximal activity concentration (AC50) was 31.6 µM [falling, single point].

As to `Cc1ccc(CC(=O)O/N=C(\N)c2cccc([N+](=O)[O-])c2)cc1`, under setting [1], the concentration at half-maximal activity (AC50) is 20.6 µM [rising, single point].

For the compound `CC(C)Oc1ccc(S(=O)(=O)N2CCOCC2)cc1NC(=O)CC1OC(=O)c2ccccc21` (stereo unspecified), under setting [1], the AC50 is 2.31 µM [rising, partial curve, poor fit].

For `O=C1N=C(N2C=CC(=C3C=CNC=C3)C=C2)/C(=C/N=NC(=O)c2ccccc2O)S1`, the half-maximal activity concentration (AC50) under setting [1] was 12.6 µM [falling, partial curve, poor fit].

With `CCCNC(=O)c1cccc(C(F)(F)F)c1`, the concentration at half-maximal activity (AC50) under setting [1] is 6.31 µM [rising, single point].

Regarding `Cc1csc(Nc2ccccc2C(F)(F)F)n1`, under setting [1], the AC50 is 0.251 µM [rising, full curve, poor fit].

As for `COc1ccc(N(C)S(=O)(=O)c2cccc(C(=O)Nc3cccc(C(=O)NC4CC4)c3)c2)cc1`, under setting [1], the AC50 is 3.66 µM [rising, partial curve, poor fit].

As to `Cc1ccc(/C=C/C(=O)Nc2cccc(S(=O)(=O)N3CCOCC3)c2)o1`, under setting [2], the AC50 is 32.6 µM [rising, partial curve, poor fit].

Regarding `COc1ccc2nc(NC(=O)CN3C(=O)NC4(CCCC4)C3=O)sc2c1`, the half-maximal activity concentration (AC50) under setting [1] was 10.3 µM [falling, partial curve, poor fit].

Turning to `O=c1[nH]cnc2ccccc12`, the AC50 under setting [1] was 0.291 µM [falling, partial curve, poor fit].

For the compound `COc1ccc(-c2cc(-c3ccc(OC)cc3)[nH]n2)cc1`, the half-maximal activity concentration (AC50) under setting [1] is 1.78 µM [rising, partial curve, poor fit].

Take `CCOC(=O)C1=C(C)N=C2SCCC(=O)N2C1c1sccc1C` (stereo unspecified): the AC50 under setting [1] was 6.31 µM [falling, full curve, poor fit].

In the case of `O=C(O)c1ccccc1-c1ccccc1C(=O)Nc1nccs1`, the AC50 under setting [1] was 22.4 µM [falling, partial curve, poor fit].

Turning to `O=C(NC(=S)N1CCCc2ccccc21)c1ccco1`, the AC50 under setting [1] was 35.5 µM [rising, partial curve, poor fit].

Take `COc1ccc(N2CCN(C(=O)CCCSc3nc4ccccc4[nH]3)CC2)cc1`: the AC50 under setting [1] is 6.51 µM [rising, single point].

Take `CCOc1ccc2c(c1)C(C)=CC(C)(C)N2S(=O)(=O)c1ccc(NC(C)=O)cc1`: the concentration at half-maximal activity (AC50) was 2 µM [rising, partial curve, poor fit] under setting [1] and 0.708 µM [falling, full curve, poor fit] under setting [2].

Regarding `Cc1ccc(Cl)c(Cn2cnc3c(cnn3C(C)(C)C)c2=O)c1F`, the half-maximal activity concentration (AC50) under setting [1] is 1.03 µM [rising, partial curve].

As to `c1ccc(-c2nn3cnnc3c3ccccc23)cc1`, the concentration at half-maximal activity (AC50) under setting [1] was 5.01 µM [rising, full curve, poor fit].

With `CC(C)NC(=O)c1ccccc1NC(=O)C1COc2ccccc2O1` (stereo unspecified), the concentration at half-maximal activity (AC50) under setting [1] was 1.46 µM [rising, full curve].

Take `Cc1cccc(N(C)C(=S)Oc2ccc3ccccc3c2)c1`: under setting [1], the AC50 was 9.2 µM [rising, partial curve].

Regarding `CS(=O)(=O)c1cnc(-c2ccccc2)nc1Sc1ccc(F)cc1`, the AC50 under setting [1] was 0.562 µM [rising, full curve, poor fit].

With `CCO[C@@H]1OC(C(=O)N2CCCCCCC2)=C[C@H](c2ccc(C(F)(F)F)cc2)[C@H]1CCCO`, under setting [1], the AC50 is 35.5 µM [falling, single point].

For the compound `COc1ccc(CCn2c(=N)c(C(=O)NCCN3CCOCC3)cc3c(=O)n4ccccc4nc32)cc1OC`, under setting [1], the AC50 was 31.6 µM [rising, single point].

Regarding `Cc1ccc(-n2nc(C)c3c(C)c(CCC(=O)O)c(C)nc32)cc1`, the AC50 under setting [1] was 35.5 µM [falling, single point].

Regarding `CCN(CC)c1ccc(/C=N/NC(=O)CC(C)C)cc1`, the AC50 under setting [1] was 5.01 µM [rising, single point].

As for `CCOc1ccccc1CNC(=O)c1cc(-c2ccc(C)c(C)c2)nc2ccccc12`, the AC50 under setting [1] was 3.16 µM [rising, single point].

As to `CC(C)c1nnc(NC(=O)Cc2ccc(Br)cc2)s1`, the AC50 under setting [1] was 6.51 µM [rising, single point].

For `CCOCCCN(C(=O)Cn1nnc(-c2ccc(C)o2)n1)C(C(=O)NC1CCCC1)c1ccc(C)o1` (stereo unspecified), the half-maximal activity concentration (AC50) under setting [1] is 0.282 µM [rising, full curve, poor fit].

Take `COC(=O)c1c(NC(=O)/C=C/C(=O)O)sc(C)c1-c1ccc(C)c(C)c1`: the concentration at half-maximal activity (AC50) under setting [1] was 20.6 µM [falling, partial curve].

Take `NC(=O)c1oc2ccccc2c1NC(=O)c1nc2ccccc2s1`: under setting [1], the AC50 was 2.82 µM [falling, full curve].

For `CCc1nnc(NS(=O)(=O)c2ccc(NC(=S)NC(=O)c3cccs3)cc2)s1`, the half-maximal activity concentration (AC50) under setting [1] is 15.8 µM [falling, single point].

On to `Cc1ccc(/C=C2/C(=O)c3ccc(C(=O)O)cc3C2=O)o1`, for which the half-maximal activity concentration (AC50) under setting [1] was 11.2 µM [falling, partial curve].

For `CC(C)CCn1cnc2c(cnn2-c2ccc(F)cc2)c1=O`, the half-maximal activity concentration (AC50) under setting [1] was 1.12 µM [rising, full curve, poor fit].

Regarding `COc1ccc(N(CC(=O)Nc2ccccc2C(=O)NCCc2ccccc2)S(C)(=O)=O)cc1OC`, under setting [1], the half-maximal activity concentration (AC50) is 29.1 µM [falling, single point].

With `Cc1cc(C)cc(OCC(=O)OCC(=O)c2ccc3c(c2)NC(=O)CO3)c1`, the concentration at half-maximal activity (AC50) under setting [1] is 6.51 µM [rising, single point].

Take `CC(C)Cc1ccc(C(C)C(N)=NCCc2ccccc2)cc1` (stereo unspecified): the AC50 under setting [1] is 25.1 µM [falling, single point].

As to `Cc1ccc(-c2noc(-c3ccccc3C(=O)NCC3CCCO3)n2)cc1` (stereo unspecified), the half-maximal activity concentration (AC50) under setting [1] is 16.4 µM [rising, partial curve, poor fit].

Regarding `CC(=NC1CCCCC1)C1=C(O)c2ccccc2C1=O`, the concentration at half-maximal activity (AC50) under setting [1] is 35.5 µM [falling, partial curve, poor fit].

As to `Cc1cc(C)c(C(=O)N2CCCC(C(=O)c3cc(F)ccc3F)C2)o1` (stereo unspecified), the concentration at half-maximal activity (AC50) under setting [1] is 0.501 µM [rising, full curve, poor fit].

On to `Cc1cc(C(=O)N/N=C/C=C/c2ccc3c(c2)OCO3)n[nH]1`, for which the AC50 under setting [1] is 3.16 µM [falling, partial curve, poor fit].

Consider `CCc1cccc(NC(=O)CCSCCC(=O)Nc2cccc(CC)c2)c1`, for which the AC50 under setting [1] was 20.6 µM [falling, single point].

Turning to `COc1cc2ncnc(NCc3ccc(F)cc3)c2cc1OC`, under setting [1], the AC50 was 6.31 µM [rising, single point].

Turning to `Cc1c(C(=O)NCc2ccc3c(c2)OCO3)oc2ccc(S(=O)(=O)N3CCCC3)cc12`, the AC50 under setting [1] is 1.16 µM [rising, full curve, poor fit].

For `Cc1ccc(Cl)cc1C1=CC(=O)C[C@H](c2ccc(F)cc2)C1`, the AC50 under setting [1] was 0.00411 µM [rising, full curve, poor fit].

As for `O=C(NNC(=S)NCc1ccc(Cl)cc1)c1ccc(Br)o1`, the AC50 under setting [1] is 35.5 µM [falling, single point].

As for `CCOc1ccc2nc(SCc3ccc(F)cc3)sc2c1`, the AC50 under setting [1] was 16.4 µM [rising, single point].

Take `COc1ccc(S(=O)(=O)n2nc(OC(=O)c3ccccc3Br)cc2N)cc1`: the concentration at half-maximal activity (AC50) under setting [1] is 8.91 µM [falling, partial curve, poor fit].

As to `C=CCn1c(SCC(=O)Nc2ccccc2C)nnc1-c1ccncc1`, under setting [1], the AC50 is 9.2 µM [falling, single point].

Turning to `O=C(CCCSc1nc2sc3c(c2c(=O)[nH]1)CCC3)NCCO`, the half-maximal activity concentration (AC50) under setting [1] is 25.1 µM [falling, single point].

In the case of `CCN(CC)S(=O)(=O)c1ccc(N2CCCC2)c(C(=O)OCC(=O)Nc2cc(C)on2)c1`, under setting [1], the half-maximal activity concentration (AC50) is 4.47 µM [rising, partial curve, poor fit].

For `Cc1ccc2[nH]c(=O)c(CN(Cc3ccco3)S(=O)(=O)c3c(C)ccc4nsnc34)cc2c1`, under setting [1], the AC50 was 25.9 µM [rising, partial curve].

For `CCOC(=O)C1=C(c2ccccc2)NC(=O)NC1c1ccsc1` (stereo unspecified), the concentration at half-maximal activity (AC50) under setting [1] is 14.1 µM [falling, partial curve, poor fit].

Take `COc1ccc(/C=N/NC2=NS(=O)(=O)c3ccccc32)cc1OC`: the half-maximal activity concentration (AC50) under setting [1] is 31.6 µM [rising, single point].

Take `CC1=CC(C)(C)Nc2ccc(OC(=O)CN3C(=O)c4ccccc4C3=O)cc21`: the AC50 under setting [1] is 18.4 µM [falling, single point].

As for `O=C(CCNC(=O)c1ccc([N+](=O)[O-])cc1)Nc1nc2ccccc2[nH]1`, the AC50 under setting [1] was 6.51 µM [rising, single point].

Consider `Cc1nc(SCc2ccc(C(=O)O)cc2)c2c(C)c(C)sc2n1`, for which the AC50 under setting [1] was 35.5 µM [falling, single point].

As to `CC(C)(C)c1ccc(CN2N=C(/C=C/c3ccccc3)CCC2=O)cc1`, under setting [1], the AC50 is 35.5 µM [falling, single point].

Take `O=C(NCc1ccco1)C1CC(c2cc(C(F)(F)F)cc(C(F)(F)F)c2)=NO1` (stereo unspecified): the AC50 is 31.6 µM [rising, single point] under setting [1] and 22.4 µM [falling, single point] under setting [2].
